Assay: general procedure: Boc solid-phase peptide synthesis; Boc-Phe resin; symmetrical anhydrides of Boc amino acids; Boc asparagine coupled in the presenc
Details: whole synthesis; for isolated yield: based on starting Boc-Phe resin

| Substance | isolated yield [%] | crude mass (scale 0.042 mmol) [mg] | crude mass (scale 0.050 mmol) [mg] | crude mass (scale 0.036 mmol) [mg] |
| --- | --- | --- | --- | --- |
| [Nle^170, Ala^165,182,189 ]-HGH-(140-191) | 3.7 | 208 |  |  |
| [Nle^170, Ala^165,182,189 ]-HGH-(145-191) | 4.6 |  | 178 |  |
| [Lys^135,136,138, Glu^137,139, Nle^170,Ala^165,182,189 ]-HGH-(135-191) | 4.7 |  |  | 167 |
